{"sequences": {"note": "Protein sequences, listed by entry. Tags and fused reporters are not part of them. Lines headed by an entry give the natural chain unless they say otherwise; changes in a name come on top. Chains listed by the source or under a name are the forms on record and can include a tag or linker.", "BaxΔC21 (Q07812, form named)": "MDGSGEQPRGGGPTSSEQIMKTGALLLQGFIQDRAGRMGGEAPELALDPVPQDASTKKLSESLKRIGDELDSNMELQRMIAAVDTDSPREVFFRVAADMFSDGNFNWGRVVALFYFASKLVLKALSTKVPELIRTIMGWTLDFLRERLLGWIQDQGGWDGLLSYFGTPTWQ"}, "source": "paper PMC4650713", "about": "“Crystal structure of Bax bound to the BH3 peptide of Bim identifies important contacts for interaction” (Cell Death & Disease, 2015)", "target": "BaxΔC21 (UniProt Q07812)", "assay": "SPR; competition in solution: BaxΔC21 at 25 nM incubated with increasing concentrations of BH3 peptide in 10 mM HEPES, 150 mM NaCl, 3.4 mM EDTA, 0.005% Tween-20, pH 7.4 with 0.5% octylglucoside, injected onto a CM5 chip with immobilised BimBH3; Bim4E channel subtracted; IC50; both purified", "note": "These are yes or no findings as the source states them, for the method shown. Some entries that bind do so weakly or less than the wild type.", "data": [{"binder": "SESQEDIIRNIARHLRQVGDSMDRSIPPGLVNGL (peptide, UniProt P55957 76-109)", "note": "[BidBH3 A91R]", "values": [{"measurement": "binding", "result": "binds"}]}]}
